PubChem BioAssay AID1259425 – University of Nebraska Medical Center | 2018

Assay: 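Seek colon cancer weak points whose silencing resembles KSR1 loss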 (primary screen)
Cells: HCT116 human colon cancer cells
Reagent: siRNA pool against human genes, 50 nM siRNA
Measured: 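mRNA of six signature genes measured together by branched-DNA assay after 50 nM siRNA pool, blank removed, divided by geometric mean of two housekeeping genes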
Reading the numbers: BNIP3L mRNA: higher = more BNIP3L transcript after knockdown
Shown is a random part of about 14,000 reagents. Some reagents were tested in more than one well and are listed for each. Further read-outs or replicates are left out here. Not given: the time to read-out.

Gene | BNIP3L mRNA, set 1
PHF21A (PHD finger protein 21A) | 0.0459
SHOX (SHOX homeobox) | 0.0845
IGF1R (insulin like growth factor 1 receptor) | 0.121
KIAA1549 | 0.184
TCTN1 (tectonic family member 1) | 0.199
GLB1 (galactosidase beta 1) | 0.0874
DLX5 (distal-less homeobox 5) | 0.0731
SLC3A1 | 0.0799
MTARC2 (mitochondrial amidoxime reducing component 2) | 0.0501
CELSR2 (cadherin EGF LAG seven-pass G-type receptor 2) | 0.13
NEMP1 (nuclear envelope integral membrane protein 1) | 0.121
DIAPH1 (diaphanous related formin 1) | 0.077
OAS2 (2'-5'-oligoadenylate synthetase 2) | 0.061
NRP2 (neuropilin 2) | 0.0857
TOLLIP (toll interacting protein) | 0.0883
TOLLIP (toll interacting protein) | 0.0475
EIF4A2 (eukaryotic translation initiation factor 4A2) | 0.0891
NEU1 (neuraminidase 1) | 0.0737
SALL4 (spalt like transcription factor 4) | 0.18
ADAMTS8 (ADAM metallopeptidase with thrombospondin type 1 motif 8) | 0.0742
MAP1LC3B (microtubule associated protein 1 light chain 3 beta) | 0.162

2 entries already listed, sorted by “BNIP3L mRNA, set 1”, ascending.
Gene | BNIP3L mRNA, set 1
DLX5 (distal-less homeobox 5) | 0.0731
SLC3A1 | 0.0799

The list goes on:
Gene | BNIP3L mRNA, set 1
HAUS1 (HAUS augmin like complex subunit 1) | 0.157
EN2 (engrailed homeobox 2) | 0.147
DNAJB11 (DnaJ heat shock protein family (Hsp40) member B11) | 0.0614
NKIRAS2 (NFKB inhibitor interacting Ras like 2) | 0.0753
NTF4 (neurotrophin 4) | 0.079
TUBB4A (tubulin beta 4A class IVa) | 0.124
GPT (glutamic--pyruvic transaminase) | 0.118
PLA2G2D (phospholipase A2 group IID) | 0.112
CYSLTR2 (cysteinyl leukotriene receptor 2) | 0.258
NKAPD1 (NKAP domain containing 1) | 0.0755
MYLK2 (myosin light chain kinase 2) | 0.0783
TRIM45 (tripartite motif containing 45) | 0.156
CHEK2 (checkpoint kinase 2) | 0.116
